In test [1] the target is tumor suppressor p53, Myc-tagged (UniProt P04637). The experiment in a line: co-IP; cells cotransfected with myc-p53 and His-PER1, harvested 24 h after transfection, lysed in RIPA buffer; lysate incubated overnight at 4 °C with anti-myc or anti-His antibody, then 2 h with protein G- or protein A-Sepharose; Western blot with anti-His and anti-myc. On the technique in general: In western blotting, separated proteins are transferred to a membrane and probed.

In test [2] the target is period 1 (PER1), His-tagged (mouse (mPer1)) (UniProt O35973). Described as above.

These are yes or no findings as the source states them, for the method shown. In cells and extracts the contact can be indirect. Some results given as binding are weak or reduced against the parent protein; the word gives no strength.

Turning to “period 1 (PER1), His-tagged (from UniProt O35973 1-1291)”, in test [1], the binding entry is “binds”. Turning to “tumor suppressor p53, Myc-tagged (from UniProt P04637 1-393)”, the binding entry in test [2] is “binds”.

The record behind these values is article PMC8001324.
